Results are given in words; binding and its absence hold for the method and conditions named. For some assays here: A result given as binding can be weak or reduced; the word gives no strength.
Columns and labels:
[1] = biological target: LCMV Wisconsin (WI) strain GP (LCMV, Wisconsin strain); test: cross-reactivity, immunofluorescence on GP-transfected 293T cells
[2] = biological target: LCMV Rhode Island (RI) strain GP (LCMV, Rhode Island strain); test: as above
[3] = biological target: LCMV Massachusetts (MA) strain GP (LCMV, Massachusetts strain); test: as above
[4] = biological target: LCMV Ohio (OH) strain GP (LCMV, Ohio strain); test: as above
[5] = biological target: LCMV Wisconsin (WI) strain GP (LCMV, Wisconsin strain); test: recognition of LCMV GPs, immunofluorescence
[6] = biological target: LCMV Rhode Island (RI) strain GP (LCMV, Rhode Island strain); test: recognition of LCMV GPs, immunofluorescence
[7] = biological target: LCMV Massachusetts (MA) strain GP (LCMV, Massachusetts strain); test: recognition of LCMV GPs, immunofluorescence
[8] = biological target: LCMV Ohio (OH) strain GP (LCMV, Ohio strain); test: recognition of LCMV GPs, immunofluorescence
[9] = biological target: LCMV Rhode Island (RI) strain GP (LCMV, Rhode Island strain); test: immunofluorescence, 293T cells transfected with GP plasmid
[10] = biological target: LCMV Ohio (OH) strain GP (LCMV, Ohio strain); test: as above
[11] = biological target: LCMV Wisconsin (WI) strain GP (LCMV, Wisconsin strain); test: as above
[12] = biological target: LCMV Massachusetts (MA) strain GP (LCMV, Massachusetts strain); test: as above

Row | Binder | binding [1] | binding [2] | binding [3] | binding [4] | binding [5] | binding [6] | binding [7] | binding [8] | binding [9] | binding [10] | binding [11] | binding [12]
1 | 36.9F (antibody, V domains shown) VH: EVQLVQSGGGLVKAGGSLKLSCGASGFTFSSYSMSWVRQAPGKGLEWVSYISSGGSSIHYADSVKGRFTISRDNAKNSLYLQMKNLRVDDTGRYYCVRDPRSGISGRYGMDVWGQGTTVTVSS VL: DIVMTQSPDSLAVSLGERATINCKSSQTVLFTSYYVAWYQQKPGQPPKLLFSGASSRESGVPDRFSAGGSGTDFYLTINSLQAEDVADYYCQQYHTPPFTFGGGTKLEIRR | binds | binds | binds | binds | binds | binds | binds | binds | – | – | – | –
2 | 37.2D (antibody, V domains shown) VH: EVQLVQSGAEVKKPGASVKVSCKASGYTFTKYGISWVRQAPGQGLEWMGWISAFNGYTRYGQRFQGKVTMTTDTSTNTASLEVRTLTSNDTAVYYCARQYPDQYSSSGWPRLFAMDVWGQGTTVIVSP VL: ETTLTQSPATLSVSPGETATLSCRASQNVINNLAWYQQKPGQAPRLLIYGASTRATGIPARFSGSGSGTEFTLTISSMQSEDFAVYYCQQYNDWPRSFGQGTRLDIRR | binds | binds | binds | binds | binds | binds | binds | binds | – | – | – | –
3 | 9.8A (antibody, V domains shown) VH: EVQLVQSGGRLVQPGGSLRLSCVASGFTFSSHAMSWVRQAPGKGLEWVSGFSGSSGTTKYADSVKGRFTISRDNSKKTLYLQMNSLRAEDTAVYYCAKGFSPFRGVQFPYFDYWGQGTLVTVSS VL: DIVMTQSPSTLSASVGDRVTITCRASQSIDRWLAWYQQKPGKAPKLLIYQASSLERGVPSRFSGSGSGTEFTLTISSLQPDDFATYYCQQYNGYPLTFGGGTKVEIKR | binds | binds | binds | binds | binds | binds | binds | binds | – | – | – | –
4 | 37.7H (antibody, V domains shown) VH: EVQLVQSGGGLVKAGGSLRLSCAASGFTFSTYSMNWIRQAPGKGLEWVASISSRSGSHINYVDSVKGRFTISRDNARDLLYLQMNSLRVDDSALYYCARDRRSGTSPLPLDVWGQGTTVTVFS VL: DQSALTQPASVSGSPGQSITISCTGTGSDIGGYNFVSWYQQYPGKAPKLIIYEVRIRASGVSNRFSGSKSGNTASLTISGLQAEDEADYYCNSYSIHSPWVFGGGTKLTVLR | binds | – | binds | – | binds | – | binds | – | no binding | no binding | – | –
5 | 25.6A (antibody, V domains shown) VH: QVQLQESGGGLVKAGGSLRLSCAASGFMFERYSLHWVRQTPGKGLEWVSSISSLSGSHINYADSVKGRFTISRDNAKNSLSLQMNSLRVEDTAIYYCARDRRSGSSPVPLDVWGQGTTVTVSS VL: DLPVLTQPASVSGSPGQSITISCTGTSSDVGAYNYVSWYQQHPGKAPKLIIYEVKIRPSGVSNRFSGSKSGNTASLTISGLQAEDEADYFCSSYSTNSPWVFGGGTKVTVLR | binds | – | binds | – | binds | – | binds | – | no binding | no binding | – | –
6 | 37.2G (antibody, V domains shown) VH: EVQLVESGGGLVKPGGSRRLSCAASGFTFSRDTMTWVRQAPGKGLEWVASISSGSSDINYADSVKGRFTISRDNGKNSLYLHMNSLRADDTAIYYCARDPRSGISGRYGMDVWGQGTTVTVSS VL: DIVLTQSPGTLSLSPGERATLSCRASQSVNSIFLAWYQQKPGQAPRLLIYGASSRATGIPDRFSGSGSGTDFTLTISRLEPEDFAVYYCQQYHSSPKLTFGGGTKVEIKR | binds | – | binds | – | binds | – | binds | – | no binding | no binding | – | –
7 | 8.11G (antibody, V domains shown) VH: QVQLQESGPGLVKPSETLSLTCSISGVSTRNYYWSWIRQSPGKGLEWIGYIFNIGTTNYNPSLKSRLTISVDTSKNQFSLKITSVTAADTAVYYCASGFEYGDYTFDYWGQGTPVTVSS VL: EIVLTQSPATLSVSPGGRASLSCRASQSIGDKLSWYQQKPGQAPRLVIYGAYTRATDISPRFSGSRSGTDFNLTISRMQSGDFAVYFCQQYENWPRTFGQGTKLEIKR | – | – | – | – | – | – | – | – | no binding | no binding | no binding | no binding
8 | 10.4B (antibody) VH: DQVQLVQSGGGVVQPGRSLRVSCVTSGFNFRAYGMHWVRQIPGKGLEWVADIWSAETNRHYADSVKGRFTISRDNSKSTLYLQMNSLRAEDTGVYFCAKARPGYDYVVDLWGQGTLVIVSSASTKGPSVFPLAPCSRSTSGGTAALGCLVKDYFPEPVTVSWNSGALTSGVHTFPAVLQSSGL VL: DEIVLTQSPSSLSASVGDRVTITCRASRDINTYLGWFQQRPGKAPKSLIYGASNLQNGVPSRFSGSGSGTYFTLTINGLQTEDFATYYCQQYSIYPLSLGGGTKADMKRTVAAPSVFIFPPSDEQLKSGTASVVCLLNNFYPREAKVQWKVDNALQSGNSQESVTEQDSKDSTYSLSSTLTLSKADYEKHKVYACEVTHQGLSSP | – | – | – | – | – | – | – | – | no binding | no binding | no binding | no binding
